Experiment [1] relates to MILI (PIWIL2) piRISC loaded with piRNA #1 (26 nt). Briefly: pre-steady-state target cleavage rate (min^-1); higher = faster piRNA-guided slicing of the target. To be noted: guide: piRNA #1 5'p-UGAGGUAGUAGGUUGUAUAGUAUCCA; auxiliary factor: 500 nM mouse GTSF1. Summed up: (§1)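 Active affinity-purified piRISC (1 nM) loaded with one synthetic guide was mixed with a transcribed, DNA-blocked target RNA library (0.1 nM), with or without 500 nM GTSF1 partner protein, in HEPES–potassium acetate buffer at 33 °C for 0–8 or 0–960 min. Uncleaved targets were sequenced, normalised to depth and to weakly complementary targets, and pooled across three trials, with k3 capped at 0.0001 min^-1. The pre-steady-state cleavage rate was determined with a burst-and-steady-state fit.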

Experiment [2] deals with MIWI (PIWIL1) piRISC loaded with piRNA #1 (30 nt). The experiment is described as above. The conditions noted are these: guide: piRNA #1 5'p-UGAGGUAGUAGGUUGUAUAGUAUCCAGAGG; auxiliary factor: 500 nM mouse GTSF1. The essentials:
as §1

Experiment [3] deals with EfPiwi piRISC loaded with piRNA #1 (26 nt). Briefly: pre-steady-state target cleavage rate (min^-1); guide: piRNA #1 5'p-UGAGGUAGUAGGUUGUAUAGUAUCCA; MIWI and MILI are mouse PIWI proteins and EfPiwi is from a freshwater sponge; tags in brackets are library labels; higher = faster piRNA-guided slicing of the target. The conditions noted are these: auxiliary factor: 500 nM Ephydatia muelleri Gtsf1. The essentials:
as §1

± gives the standard deviation. The entries are a selection whose mix differs from that of the whole data set. The uncertainty is large for many entries.

In the case of GGAGACCUAUCUAUACAACCUACACCUCA, the “pre-steady-state target cleavage rate” value in experiment [1] is 0.00183 ± 0.0032; in experiment [2], 0.000682 ± 0.0074.
With “GGAGACCUAUGAUAUCAACCUACUACCUCG [g2:g15:cont:t1G]”, the “pre-steady-state target cleavage rate” value is 0.00273 ± 0.0036 in experiment [1] and 0.000901 ± 0.0064 in experiment [2].
The matching figures for GGAGACCUAUGAUAUCAACUUACUACCUCA: 0.00319 ± 0.0027 and 0.000336 ± 0.011.
Taken in the same sequence, the figures for GGAGACCUAACUAUACCAACCUACUACCUCA were 0.00183 ± 0.0098 and 0.000957 ± 0.012.
In the case of GGAGACCUAUGAUUACCACCUACUACCUCA, the entries for the “pre-steady-state target cleavage rate” value in experiment [1] and in experiment [2] were 0.00294 ± 0.0032 and 0.000461 ± 0.0065, respectively.
As to GGAGACCUAUGAUUACAACCUCUACCUCA, the figures for the “pre-steady-state target cleavage rate” value in experiment [1] and in experiment [2] were 0.000139 ± 0.026 and 0.000204 ± 0.0085, respectively.
In the case of GGAGACCUAUGAAUACAACCAACUACCACA, the “pre-steady-state target cleavage rate” value in experiment [1] is 0.00145 ± 0.0048; in experiment [2] it was 0.000173 ± 0.015.
Taken in the same sequence, the figures for GGAGACCUAACUAUACAACGUUCUACCUCA were 0.00225 ± 0.0061 and 0.00255 ± 0.0046.
Taken in the same sequence, the figures for GGAGACCUAUGAUAUCAACCUACUACCACA were 0.000844 ± 0.0066 and 0.000133 ± 0.021.
Taken in the same sequence, the figures for GGAGACCUUACUAUACAACCUCUACCUCA were 0.00247 ± 0.0027 and 0.0014 ± 0.0044.
For GGAGACCUAUGAUAUCAACCUACUACCUUCA, the “pre-steady-state target cleavage rate” value in experiment [1] turned out to be 0.00188 ± 0.0033; in experiment [2] it was 0.000229 ± 0.0093.
In the case of GGAGACCUAUGUAUACAACCAACUUCCUCA, the “pre-steady-state target cleavage rate” value stood at 0.0018 ± 0.0034 in experiment [1] and 0.0011 ± 0.0043 in experiment [2].
As to GGAGACCUUACUAUACAACCUACACCUCA, the “pre-steady-state target cleavage rate” value in experiment [1] came out at 0.00208 ± 0.0042; in experiment [2] it was 0.000337 ± 0.013.
Taken in the same sequence, the figures for GGAGACCUAUGAAUACUACCUUCUACCUCA were 0.00259 ± 0.0031 and 0.000351 ± 0.005.
Taken in the same sequence, the figures for GGAGACCAUACUAUACAGACCUACUACCUCA were 0.00132 ± 0.0077 and 0.00095 ± 0.0087.
The matching figures for GGAGACCUAUGAUUACAACCUGACUACCUCA: 0.00163 ± 0.0041 and 0.000639 ± 0.0081.
Regarding GGAGACCUAUGAUAACAACCUACUACGACA, the entries for the “pre-steady-state target cleavage rate” value in experiment [1] and in experiment [2] were 0.000562 ± 0.0097 and 0.000204 ± 0.012, respectively.
The matching figures for GGAGACCUAUGAUAUCAACCGUACUACCUCA: 0.000778 ± 0.0059 and 0.000308 ± 0.0059.
Taken in the same sequence, the figures for GGAGACCUAUGAUAUGUUGCUACAACCUCA were 0.000599 ± 0.011 and 0.000887 ± 0.0076.
The matching figures for GGAGACCUAUGAUAACUACCUACUACCUGA: 0.000599 ± 0.0083 and 0.000122 ± 0.016.
For GGAGACCAUACUAUACAACCUGACUACCUCA, the results for the “pre-steady-state target cleavage rate” value in experiment [1] and in experiment [2] were 0.00143 ± 0.0054 and 0.0021 ± 0.0022, respectively.
As to GGAGACCUAUGUAUACAACGAUCUACCUCA, the “pre-steady-state target cleavage rate” value in experiment [1] stood at 0.000789 ± 0.007; in experiment [2] it was 0.000147 ± 0.014.
Regarding GGAGACCUAUGAUAACAACCUACUCACCUCA, the “pre-steady-state target cleavage rate” value is 0.00465 ± 0.0027 in experiment [1] and 0.00145 ± 0.0053 in experiment [2].
With GGAGACCUAUGUAUACAACCAACUACCACA, the “pre-steady-state target cleavage rate” value in experiment [1] was found to be 0.00188 ± 0.0039; in experiment [2], 0.000407 ± 0.0069.
Taken in the same sequence, the figures for GGAGACCUAUGAUAUCAACCUUCUACGUCA were 0.000156 ± 0.016 and 0.000503 ± 0.009.
Taken in the same sequence, the figures for GGAGACCUAUGAUAUCAACCUACUACCUCCA were 0.00207 ± 0.003 and 0.000278 ± 0.0069.
Taken in the same sequence, the figures for “GGAGAGGAUACUAUACAACCUACUUGGAGA [g7:g25:cont:t1A]” were 0.001 ± 0.0059 and 0.00122 ± 0.0059.
For GGAGACCAUACUAUACAAACCUACUACCUCA, the “pre-steady-state target cleavage rate” value in experiment [1] came out at 0.0045 ± 0.003; in experiment [2], 0.00279 ± 0.0032.
Taken in the same sequence, the figures for GGAGACCUAUGAUAUGUUGCAUCUACCUCA were 0.0003 ± 0.016 and 0.000389 ± 0.011.
For the sequence GGAGACCUAUGAUAUUAACCUACUACCUCA, the “pre-steady-state target cleavage rate” value in experiment [1] is 0.000603 ± 0.0081; in experiment [2] it was 0.00013 ± 0.02.
The matching figures for GGAGACCUAUGAAUACAACCUAUACCUCA: 0.000457 ± 0.0099 and 0.00014 ± 0.016.
Taken in the same sequence, the figures for GGAGACCUUACUAUACAACCUUACUACCUCA were 0.00127 ± 0.0051 and 0.00126 ± 0.0039.
For the sequence GGAGACCUAUGAUAUCAACCUUGUACCUCA, the “pre-steady-state target cleavage rate” value stood at 0.000889 ± 0.0073 in experiment [1] and 0.000159 ± 0.017 in experiment [2].
As for GGAGUGGAUACUAUACAACCUAGUUCCUCA, the entries for the “pre-steady-state target cleavage rate” value in experiment [1] and in experiment [2] were 0.000511 ± 0.0061 and 0.00152 ± 0.0029, respectively.
The matching figures for GGAGACCUAUGAAUACAACCUACUUGCUCA: 0.00181 ± 0.0042 and 0.000309 ± 0.0054.
The matching figures for GGAGACCUAUGUAUACAACCUAUACCUCA: 0.00145 ± 0.0049 and 0.000221 ± 0.01.
For the sequence GGAGACCUAUGUAUACAACCAACAACCUCA, the “pre-steady-state target cleavage rate” value is 0.00225 ± 0.0034 in experiment [1] and 0.000584 ± 0.0041 in experiment [2].
Turning to GGAGACCUAUGAUAUGUUGGCACUACCUCA, the entries for the “pre-steady-state target cleavage rate” value in experiment [1] and in experiment [2] were 0.000286 ± 0.016 and 0.00067 ± 0.0072, respectively.
The matching figures for GGAGACCUAUGAUAUCAACCUACUCCCUCA: 0.00178 ± 0.0038 and 0.000542 ± 0.0078.
The matching figures for GGAGACCUAUGUAUACAACCAACUACCUGA: 0.00218 ± 0.0029 and 0.00148 ± 0.0042.
The matching figures for “GGAGACCUAACUAUACAACCUAGAUGGAGA [g9:g21:cont:t1A]”: 0.000768 ± 0.018 and 0.000138 ± 0.043.
Consider GGAGACCUAUGAAUACAACCUAGAACCUCA, for which the entries for the “pre-steady-state target cleavage rate” value in experiment [1] and in experiment [2] were 0.0015 ± 0.0049 and 0.000309 ± 0.012, respectively.
For GGAGACCUAUGAUAACAACCUGACUACCUCA, the results for the “pre-steady-state target cleavage rate” value in experiment [1] and in experiment [2] were 0.00191 ± 0.0035 and 0.000243 ± 0.011, respectively.
Taken in the same sequence, the figures for GGAGACCUAUGUAUACAACCUUCUACCUGA were 0.000876 ± 0.0062 and 0.00204 ± 0.0035.
As for GGAGACCUAACUAUAGAACCUACUAGCUCA, the “pre-steady-state target cleavage rate” value stood at 0.00426 ± 0.0041 in experiment [1], 0.00321 ± 0.0051 in experiment [2] and 0.00137 ± 0.0087 in experiment [3].
Taken in the same sequence, the figures for GGAGACCUAUGAUAUGUACGCUACUACCUCA were 0.000713 ± 0.0087, 0.000928 ± 0.0045 and 0.00134 ± 0.0053.
The matching figures for GGAGACCUAUGAUAUCAUCCUACUACCUGA: 0.000739 ± 0.0048, 0.000192 ± 0.01 and 0.000219 ± 0.01.
The matching figures for GGAGACCAUACUAUAGAACCUACAACCUCA: 0.000558 ± 0.0043, 0.00177 ± 0.0021 and 0.00069 ± 0.0056.
Regarding GGAGACCUAUGAUAACAUCCUACUACCUCA, the figures for the “pre-steady-state target cleavage rate” value in experiment [1], in experiment [2] and in experiment [3] were 0.00447 ± 0.0023, 0.000717 ± 0.0066 and 0.000695 ± 0.0054, respectively.
For the sequence GGAGACCUAUGAUAUGUUGGUAUUACCUCA, the entries for the “pre-steady-state target cleavage rate” value in experiment [1], in experiment [2] and in experiment [3] were 0.000237 ± 0.017, 0.000358 ± 0.014 and 0.000934 ± 0.0064, respectively.
Taken in the same sequence, the figures for GGAGACCUAUGAUAACAACCAUCUACCUCA were 0.0023 ± 0.0026, 0.00019 ± 0.012 and 0.000199 ± 0.012.
The matching figures for GGAGACCUAUGAUUACAAUCCUACUACCUCA: 0.000499 ± 0.015, 0.000514 ± 0.012 and 0.00106 ± 0.007.
Taken in the same sequence, the figures for GGAGACCUAUGAUAUGUUGGUACUUCGUCA were 0.000255 ± 0.018, 0.000439 ± 0.01 and 0.000216 ± 0.0071.
On to GGAGACCUAUGAUUACAACCUGCUACCUCA, for which the “pre-steady-state target cleavage rate” value in experiment [1] worked out at 0.00186 ± 0.0046; in experiment [2] it was 0.00127 ± 0.0039.
GGAGACCUAUGAUAUCAACUACUACCUCA: the “pre-steady-state target cleavage rate” value in experiment [1] is 0.000242 ± 0.01; in experiment [2], 0.000105 ± 0.016; in experiment [3], 0.000671 ± 0.0095.
As to GGAGACCUAUGAAUACAAGCUUCUACCUCA, the “pre-steady-state target cleavage rate” value stood at 0.0038 ± 0.002 in experiment [1] and 0.000805 ± 0.0039 in experiment [2].
For the sequence GGAGACCUAUGAUAACAACCAACUACCUCA, the “pre-steady-state target cleavage rate” value in experiment [1] was determined as 0.00165 ± 0.0045; in experiment [2], 0.000105 ± 0.027; in experiment [3], 0.000266 ± 0.012.
For GGAGACCUAUGAAUACAACCUUGUACCUCA, the results for the “pre-steady-state target cleavage rate” value in experiment [1] and in experiment [2] were 0.00106 ± 0.0057 and 0.000214 ± 0.011, respectively.
Regarding GGAGACCUAUGUAUACUAACCUACUACCUCA, the “pre-steady-state target cleavage rate” value in experiment [1] was found to be 0.000831 ± 0.0067; in experiment [2] it was 0.000159 ± 0.019; in experiment [3], 0.000865 ± 0.0066.
With GGAGACCUAUGAUAUGUUGCUACAACGUCA, the “pre-steady-state target cleavage rate” value was 0.00109 ± 0.0072 in experiment [1], 0.00141 ± 0.0056 in experiment [2] and 0.000677 ± 0.0052 in experiment [3].
Taken in the same sequence, the figures for GGAGACCUAUGUAUAGAACCUACAACCUCA were 0.00197 ± 0.0022, 0.000268 ± 0.013 and 0.000152 ± 0.024.

(Values after the supplement of paper PMC10338343.)
